PubChem BioAssay AID1259254 | NCATS | 2017

- Purpose: 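Gene knock-downs that lead to re-replication, shown by excess G2 DNA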 (primary screen)
- Cells: human HCT116 colorectal cancer cells
- Knock-down reagent: single siRNA against human genes
- Timing: 3 days
- Read-out: 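Imaged Hoechst DNA stain sorts each cell into a cycle phase by DNA amount; per plate, G2 fraction set to 0% for non-targeting and 100% for GMNN siRNA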
- Reading the numbers: G2 robust z-score and G2 cells, % of GMNN control: higher = more G2 cells, more excess DNA replication
- Call rule: 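An siRNA counts as active if its G2 robust z-score lies at least 5 MADs above the screen median; here such calls match roughly 38% of GMNN control or more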
The deposit covers about 59,000 reagents; below is a random part of them. Over the whole deposit, about 1,550 (2.6%) are marked active. 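G2 share is only a proxy for re-replication; each gene was hit by three separate siRNAs, and active genes were retested.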 Not all columns of the deposit are shown. The record does not give: the amount of reagent.

SPATA45 [SID160758854] — G2 robust z-score: 1.04; G2 cells, % of GMNN control: 10.3; call: inactive
SPATA45 [SID160758855] — G2 robust z-score: 1.41; G2 cells, % of GMNN control: 12.9; call: inactive
SPATA45 [SID160758856] — G2 robust z-score: 0.394; G2 cells, % of GMNN control: 5.74; call: inactive
SLC15A1 [SID160716948] — G2 robust z-score: -0.818; G2 cells, % of GMNN control: -2.79; call: inactive
SLC15A1 [SID160716949] — G2 robust z-score: 0.648; G2 cells, % of GMNN control: 7.53; call: inactive
SLC15A1 [SID160716950] — G2 robust z-score: 2.63; G2 cells, % of GMNN control: 21.5; call: inactive
PPP1R15A [SID160736750] — G2 robust z-score: 1.51; G2 cells, % of GMNN control: 13.6; call: inactive
PPP1R15A [SID160736751] — G2 robust z-score: -0.865; G2 cells, % of GMNN control: -3.12; call: inactive
PPP1R15A [SID160736753] — G2 robust z-score: -0.186; G2 cells, % of GMNN control: 1.66; call: inactive
USP38 [SID160752497] — G2 robust z-score: 1.23; G2 cells, % of GMNN control: 11.6; call: inactive
USP38 [SID160752498] — G2 robust z-score: 0.553; G2 cells, % of GMNN control: 6.86; call: inactive
USP38 [SID160752499] — G2 robust z-score: 0.0517; G2 cells, % of GMNN control: 3.33; call: inactive
LCN1P2 [SID160726371] — G2 robust z-score: 2.75; G2 cells, % of GMNN control: 22.3; call: inactive
LCN1P2 [SID160726372] — G2 robust z-score: -0.588; G2 cells, % of GMNN control: -1.17; call: inactive
LCN1P2 [SID160726373] — G2 robust z-score: -0.199; G2 cells, % of GMNN control: 1.56; call: inactive
MAP2K5 [SID160715018] — G2 robust z-score: 0.323; G2 cells, % of GMNN control: 5.24; call: inactive
MAP2K5 [SID160715019] — G2 robust z-score: -0.18; G2 cells, % of GMNN control: 1.7; call: inactive
MAP2K5 [SID160715020] — G2 robust z-score: -0.14; G2 cells, % of GMNN control: 1.98; call: inactive
